Measurements reported in PubChem BioAssay AID652243 (Drosophila RNAi Screening Center, 2013)

- Screen: 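Fly genes required for human androgen receptor driven transcription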 (primary screen)
- Cells: Drosophila S2R+ cells
- Reagents: long dsRNA against Drosophila genes
- Duration: 72 h (48 h, then 24 h hormone)
- Conditions: synthetic androgen R1881 at 10 nM for 24 h
- Measured: 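Per-well raw luminescence of the androgen-driven firefly reporter and of the Renilla control, two replicates each, without normalisation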
- Direction: firefly reporter light: higher = more light from androgen-responsive reporter; Renilla control light: higher = more constitutive control signal (cell number, transfection)
- Active means: 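Across duplicate plates, a knock-down whose log firefly/Renilla ratio shifted a set fold down or up from the GFP/LacZ control mean was a hit; the downward cut appears as both 1.5 and 3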
- Calls: active = hit: reporter lowered or raised; inactive = no hit
The screen tested about 24,000 reagents; this is a random part of those with a known target gene and a result. Over the whole deposit, 246 (1%) were called active. 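Plates not normalised; calls are printed but the firefly/Renilla ratio behind them is not deposited; fold cut for lowering reported inconsistently.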 Raw values vary from plate to plate and are shown uncorrected. Reagent sequences are not shown. Not given: the amount of reagent.

Dlip2 (Dorsal interacting protein 2) [DRSC12346]
- firefly reporter light, replicate 1: 89044
- firefly reporter light, replicate 2: 78768
- Renilla control light, replicate 1: 1.75e6
- Renilla control light, replicate 2: 1.75e6
- call: inactive

CG8545 [DRSC07210]
- firefly reporter light, replicate 1: 9.70e5
- firefly reporter light, replicate 2: 5.71e5
- Renilla control light, replicate 1: 1.98e6
- Renilla control light, replicate 2: 1.24e6
- call: inactive

CG31612 [DRSC03697]
- firefly reporter light, replicate 1: 7.12e5
- firefly reporter light, replicate 2: 7.75e5
- Renilla control light, replicate 1: 1.55e6
- Renilla control light, replicate 2: 1.77e6
- call: inactive

CG31612 [DRSC03698]
- firefly reporter light, replicate 1: 2.68e5
- firefly reporter light, replicate 2: 2.16e5
- Renilla control light, replicate 1: 2.49e6
- Renilla control light, replicate 2: 1.33e6
- call: inactive

CG12817 [DRSC14555]
- firefly reporter light, replicate 1: 61686
- firefly reporter light, replicate 2: 87460
- Renilla control light, replicate 1: 1.80e6
- Renilla control light, replicate 2: 2.01e6
- call: inactive

CG5377 [DRSC15783]
- firefly reporter light, replicate 1: 2.73e5
- firefly reporter light, replicate 2: 3.65e5
- Renilla control light, replicate 1: 3.41e6
- Renilla control light, replicate 2: 3.74e6
- call: inactive

CG5377 [DRSC28892]
- firefly reporter light, replicate 1: 4.17e5
- firefly reporter light, replicate 2: 4.36e5
- Renilla control light, replicate 1: 9.80e5
- Renilla control light, replicate 2: 1.35e6
- call: inactive

Septin1 (Septin 1) [DRSC20573]
- firefly reporter light, replicate 1: 4.05e5
- firefly reporter light, replicate 2: 2.20e5
- Renilla control light, replicate 1: 3.71e5
- Renilla control light, replicate 2: 2.32e5
- call: inactive

CG15930 [DRSC18107]
- firefly reporter light, replicate 1: 3.52e5
- firefly reporter light, replicate 2: 2.91e5
- Renilla control light, replicate 1: 2.81e6
- Renilla control light, replicate 2: 2.69e6
- call: inactive

CG15930 [DRSC29656]
- firefly reporter light, replicate 1: 3.01e5
- firefly reporter light, replicate 2: 4.06e5
- Renilla control light, replicate 1: 7.13e5
- Renilla control light, replicate 2: 7.13e5
- call: inactive

Lcp65Af [DRSC11213]
- firefly reporter light, replicate 1: 2.97e5
- firefly reporter light, replicate 2: 2.40e5
- Renilla control light, replicate 1: 2.49e6
- Renilla control light, replicate 2: 2.13e6
- call: inactive

Lcp65Af [DRSC25142]
- firefly reporter light, replicate 1: 4.02e5
- firefly reporter light, replicate 2: 4.24e5
- Renilla control light, replicate 1: 3.71e5
- Renilla control light, replicate 2: 3.92e5
- call: inactive

CG14961 [DRSC08420]
- firefly reporter light, replicate 1: 83695
- firefly reporter light, replicate 2: 1.05e5
- Renilla control light, replicate 1: 1.44e6
- Renilla control light, replicate 2: 1.68e6
- call: inactive

Jon44E (Jonah 44E) [DRSC07216]
- firefly reporter light, replicate 1: 3.15e5
- firefly reporter light, replicate 2: 2.51e5
- Renilla control light, replicate 1: 1.29e6
- Renilla control light, replicate 2: 1.31e6
- call: inactive

Jon44E (Jonah 44E) [DRSC25190]
- firefly reporter light, replicate 1: 7.70e5
- firefly reporter light, replicate 2: 3.98e5
- Renilla control light, replicate 1: 6.73e5
- Renilla control light, replicate 2: 6.85e5
- call: inactive

CG11756 [DRSC19424]
- firefly reporter light, replicate 1: 4.76e5
- firefly reporter light, replicate 2: 4.46e5
- Renilla control light, replicate 1: 3.36e6
- Renilla control light, replicate 2: 3.61e6
- call: inactive

CG11756 [DRSC30076]
- firefly reporter light, replicate 1: 9.39e5
- firefly reporter light, replicate 2: 9.19e5
- Renilla control light, replicate 1: 1.43e6
- Renilla control light, replicate 2: 9.90e5
- call: inactive

Pxn (Peroxidasin) [DRSC08685]
- firefly reporter light, replicate 1: 5.60e5
- firefly reporter light, replicate 2: 6.16e5
- Renilla control light, replicate 1: 1.51e6
- Renilla control light, replicate 2: 1.73e6
- call: inactive

Pxn (Peroxidasin) [DRSC27895]
- firefly reporter light, replicate 1: 4.88e5
- firefly reporter light, replicate 2: 4.35e5
- Renilla control light, replicate 1: 1.25e6
- Renilla control light, replicate 2: 1.08e6
- call: inactive

hbn (homeobrain) [DRSC04238]
- firefly reporter light, replicate 1: 2.09e5
- firefly reporter light, replicate 2: 2.51e5
- Renilla control light, replicate 1: 2.70e6
- Renilla control light, replicate 2: 2.70e6
- call: inactive

hbn (homeobrain) [DRSC04239]
- firefly reporter light, replicate 1: 3.87e5
- firefly reporter light, replicate 2: 5.12e5
- Renilla control light, replicate 1: 2.01e6
- Renilla control light, replicate 2: 1.68e6
- call: inactive

hbn (homeobrain) [DRSC22436]
- firefly reporter light, replicate 1: 2.05e5
- firefly reporter light, replicate 2: 5.45e5
- Renilla control light, replicate 1: 9.98e5
- Renilla control light, replicate 2: 1.60e6
- call: inactive
